Laboratory results as given in publication PMC2669294, “The Spliceosomal Phosphopeptide P140 Controls the Lupus Disease by Interacting with the HSC70 Protein and via a Mechanism Mediated by γδ T Cells” (PLoS ONE, 2009).
Results are given in words; binding and its absence hold for the method and conditions named.

Biological target: Hsp70 (inducible Hsp70/Hsp72)
Assay: SPR; P140 and Hsp70; which of the two was immobilised is not told; both purified

RIHMVYSKRSGKPRGYAFIEY (phosphoserine at Ser140 (position 10 of the peptide)) [P140 peptide (U1-70K snRNP protein residues 131-151, phosphorylated on Ser140)]
binding: no binding
